In the assay the target is T1, FOXA2 (stably overexpressed in LuNE cells) (human) (UniProt Q9Y261).
T1 sequence: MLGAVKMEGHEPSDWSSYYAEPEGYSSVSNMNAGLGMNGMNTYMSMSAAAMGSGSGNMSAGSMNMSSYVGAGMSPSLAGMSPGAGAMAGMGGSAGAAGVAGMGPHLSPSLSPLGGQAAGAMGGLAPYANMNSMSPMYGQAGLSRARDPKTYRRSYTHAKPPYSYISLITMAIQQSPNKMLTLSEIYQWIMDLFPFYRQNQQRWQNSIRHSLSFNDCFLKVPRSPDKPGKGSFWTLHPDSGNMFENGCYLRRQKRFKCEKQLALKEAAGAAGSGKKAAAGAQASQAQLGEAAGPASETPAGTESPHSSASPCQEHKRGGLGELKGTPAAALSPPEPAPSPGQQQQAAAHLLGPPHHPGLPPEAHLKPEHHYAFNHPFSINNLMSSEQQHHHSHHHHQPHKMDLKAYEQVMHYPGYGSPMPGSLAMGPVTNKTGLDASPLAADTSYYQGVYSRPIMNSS
The assay is described as follows: affinity purification with mass spectrometry; FOXA2 versus IgG Co-IP from the chromatin fraction of LuNE cells, three replicates pooled, Orbitrap Velos Pro, SEQUEST (Fig. 7a).

By UniProt entry, the sequences of proteins in these tests, tags left out.
UniProt Q92793: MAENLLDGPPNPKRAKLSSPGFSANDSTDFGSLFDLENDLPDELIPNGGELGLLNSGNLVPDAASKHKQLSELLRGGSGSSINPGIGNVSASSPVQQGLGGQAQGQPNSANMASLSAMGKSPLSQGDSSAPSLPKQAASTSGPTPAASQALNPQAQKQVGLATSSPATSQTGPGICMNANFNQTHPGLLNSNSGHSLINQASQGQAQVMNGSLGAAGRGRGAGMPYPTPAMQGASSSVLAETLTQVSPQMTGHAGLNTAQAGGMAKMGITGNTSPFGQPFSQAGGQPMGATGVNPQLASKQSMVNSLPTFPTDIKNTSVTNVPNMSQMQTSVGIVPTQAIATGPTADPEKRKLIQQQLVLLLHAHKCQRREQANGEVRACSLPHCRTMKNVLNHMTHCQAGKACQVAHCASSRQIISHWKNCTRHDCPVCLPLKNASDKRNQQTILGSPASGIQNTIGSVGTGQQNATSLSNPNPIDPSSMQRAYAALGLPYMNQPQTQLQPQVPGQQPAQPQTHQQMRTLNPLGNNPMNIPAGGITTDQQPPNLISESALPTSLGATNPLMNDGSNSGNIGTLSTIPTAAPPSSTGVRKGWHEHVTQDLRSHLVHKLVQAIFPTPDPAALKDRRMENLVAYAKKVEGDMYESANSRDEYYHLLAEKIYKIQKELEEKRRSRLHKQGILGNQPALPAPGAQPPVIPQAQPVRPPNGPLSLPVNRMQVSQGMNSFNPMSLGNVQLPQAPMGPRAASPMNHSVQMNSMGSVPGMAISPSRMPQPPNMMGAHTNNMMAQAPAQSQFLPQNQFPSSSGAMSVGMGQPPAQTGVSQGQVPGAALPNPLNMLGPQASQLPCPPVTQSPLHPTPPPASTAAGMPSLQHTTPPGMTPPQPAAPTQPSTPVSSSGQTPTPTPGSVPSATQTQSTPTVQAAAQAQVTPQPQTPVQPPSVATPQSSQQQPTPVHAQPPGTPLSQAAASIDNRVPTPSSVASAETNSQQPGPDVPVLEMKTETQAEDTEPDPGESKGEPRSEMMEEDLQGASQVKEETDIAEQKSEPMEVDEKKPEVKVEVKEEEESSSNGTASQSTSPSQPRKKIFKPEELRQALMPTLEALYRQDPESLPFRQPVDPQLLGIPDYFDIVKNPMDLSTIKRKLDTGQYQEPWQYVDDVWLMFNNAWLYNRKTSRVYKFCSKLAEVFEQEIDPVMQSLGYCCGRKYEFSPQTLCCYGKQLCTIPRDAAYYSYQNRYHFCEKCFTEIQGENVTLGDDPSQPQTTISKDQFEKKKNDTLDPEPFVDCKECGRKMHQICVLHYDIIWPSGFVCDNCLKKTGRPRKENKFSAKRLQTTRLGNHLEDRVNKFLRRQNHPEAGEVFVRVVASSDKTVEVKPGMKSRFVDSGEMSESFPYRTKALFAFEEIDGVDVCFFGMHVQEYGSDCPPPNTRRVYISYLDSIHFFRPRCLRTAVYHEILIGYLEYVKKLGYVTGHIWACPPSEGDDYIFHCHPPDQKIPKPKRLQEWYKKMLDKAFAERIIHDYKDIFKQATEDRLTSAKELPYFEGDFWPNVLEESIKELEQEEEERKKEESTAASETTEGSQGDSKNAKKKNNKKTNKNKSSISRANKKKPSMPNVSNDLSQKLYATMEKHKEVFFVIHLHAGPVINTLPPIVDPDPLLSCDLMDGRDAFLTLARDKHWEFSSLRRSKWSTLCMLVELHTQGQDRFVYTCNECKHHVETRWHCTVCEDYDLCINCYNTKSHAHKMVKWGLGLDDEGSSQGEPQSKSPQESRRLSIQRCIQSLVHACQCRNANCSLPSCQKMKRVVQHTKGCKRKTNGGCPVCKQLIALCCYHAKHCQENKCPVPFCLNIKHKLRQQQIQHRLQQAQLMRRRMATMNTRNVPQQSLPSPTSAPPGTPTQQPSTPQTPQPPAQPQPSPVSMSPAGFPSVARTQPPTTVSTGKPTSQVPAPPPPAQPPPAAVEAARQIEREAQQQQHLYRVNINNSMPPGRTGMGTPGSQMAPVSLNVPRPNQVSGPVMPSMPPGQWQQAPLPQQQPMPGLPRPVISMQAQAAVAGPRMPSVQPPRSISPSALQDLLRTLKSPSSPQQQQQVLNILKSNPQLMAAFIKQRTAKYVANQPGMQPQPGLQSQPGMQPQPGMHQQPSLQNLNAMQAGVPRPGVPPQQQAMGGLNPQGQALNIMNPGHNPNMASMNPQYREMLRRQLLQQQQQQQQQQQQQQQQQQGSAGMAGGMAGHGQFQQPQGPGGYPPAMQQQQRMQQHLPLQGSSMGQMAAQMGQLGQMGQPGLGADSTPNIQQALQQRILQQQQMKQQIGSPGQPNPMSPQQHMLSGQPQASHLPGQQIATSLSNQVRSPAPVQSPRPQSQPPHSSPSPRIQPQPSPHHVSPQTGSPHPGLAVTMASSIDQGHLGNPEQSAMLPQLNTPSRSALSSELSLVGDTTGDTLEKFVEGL

These are yes or no findings as the source states them, for the method shown. Binding seen in cells or lysates may run through a third protein. These calls come from enrichment with a bait or labelling near it, and not all partners need be listed.

Turning to “CREBBP (CBP) (from UniProt Q92793 1-2442) (enzyme)”, the binding result is “binds”.

These data come from paper PMC12339387.
